These are yes or no findings as the source states them, for the method shown. In cells and extracts the contact can be indirect. These calls come from enrichment with a bait or labelling near it, and not all partners need be listed.
Molecular target: Adenosine A2A receptor (rat (endogenous in primary rat microglia)) (UniProt P30543)
Experiment: affinity purification with mass spectrometry; anti-A2aR antibody or IgG on Protein A/G magnetic beads, mixed with lysate of primary rat microglia treated with chronic hypoxia, rotated overnight at 4°C; SDS-PAGE and MS; proteins unique to the IP group taken as potential A2aR-binding proteins

Amino acid sequences for entries named in this document (tags omitted). A change or cut given only in a name is not applied to a line headed by its entry. Residues count along the entry.
UniProt P30543: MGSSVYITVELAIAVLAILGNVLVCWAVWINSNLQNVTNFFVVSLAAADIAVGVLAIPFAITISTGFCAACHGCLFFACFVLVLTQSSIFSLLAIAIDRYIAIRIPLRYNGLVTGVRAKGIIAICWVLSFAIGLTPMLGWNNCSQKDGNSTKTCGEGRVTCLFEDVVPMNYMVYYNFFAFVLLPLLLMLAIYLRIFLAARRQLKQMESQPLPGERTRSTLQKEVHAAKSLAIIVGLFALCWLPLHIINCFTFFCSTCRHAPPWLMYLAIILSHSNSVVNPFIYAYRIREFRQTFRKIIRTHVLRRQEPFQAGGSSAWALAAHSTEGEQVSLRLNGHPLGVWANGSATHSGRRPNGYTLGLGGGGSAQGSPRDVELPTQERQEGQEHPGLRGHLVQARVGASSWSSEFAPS
UniProt P31424, residues 21-1203: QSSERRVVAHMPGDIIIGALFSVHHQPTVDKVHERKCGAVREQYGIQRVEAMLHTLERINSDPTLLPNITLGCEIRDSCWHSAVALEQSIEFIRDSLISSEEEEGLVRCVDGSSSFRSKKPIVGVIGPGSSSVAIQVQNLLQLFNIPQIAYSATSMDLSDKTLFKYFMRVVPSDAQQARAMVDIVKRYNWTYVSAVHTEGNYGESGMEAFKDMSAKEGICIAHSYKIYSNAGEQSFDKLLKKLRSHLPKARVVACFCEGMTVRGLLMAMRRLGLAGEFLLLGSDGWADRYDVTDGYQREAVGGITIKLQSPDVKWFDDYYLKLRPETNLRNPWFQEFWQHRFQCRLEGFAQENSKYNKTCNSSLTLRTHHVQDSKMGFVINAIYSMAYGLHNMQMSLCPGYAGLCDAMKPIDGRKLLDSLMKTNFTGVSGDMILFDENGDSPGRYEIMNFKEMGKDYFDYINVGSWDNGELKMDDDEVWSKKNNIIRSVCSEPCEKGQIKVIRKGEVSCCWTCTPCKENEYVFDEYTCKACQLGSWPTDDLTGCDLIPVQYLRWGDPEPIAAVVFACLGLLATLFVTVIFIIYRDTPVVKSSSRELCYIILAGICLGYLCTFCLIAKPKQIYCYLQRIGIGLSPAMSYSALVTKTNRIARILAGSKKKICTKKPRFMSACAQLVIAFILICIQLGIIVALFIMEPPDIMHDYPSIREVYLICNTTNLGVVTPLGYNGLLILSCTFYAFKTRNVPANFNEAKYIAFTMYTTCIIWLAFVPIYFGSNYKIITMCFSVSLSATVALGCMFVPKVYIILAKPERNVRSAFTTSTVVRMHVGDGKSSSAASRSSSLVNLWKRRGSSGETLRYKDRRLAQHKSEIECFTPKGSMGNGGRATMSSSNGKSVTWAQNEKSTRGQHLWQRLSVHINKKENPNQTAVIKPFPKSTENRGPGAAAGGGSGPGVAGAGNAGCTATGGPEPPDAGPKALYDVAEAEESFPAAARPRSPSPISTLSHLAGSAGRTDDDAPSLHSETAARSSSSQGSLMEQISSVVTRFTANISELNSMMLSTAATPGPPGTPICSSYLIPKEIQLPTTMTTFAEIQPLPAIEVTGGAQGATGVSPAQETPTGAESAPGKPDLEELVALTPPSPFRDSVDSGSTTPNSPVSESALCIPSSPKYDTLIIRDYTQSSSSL

mGluR5 (from UniProt P31424 21-1203) (receptor)
binding: binds

From publication PMC11897865
